# From PubChem BioAssay AID2685 (National Center for Advancing Translational Sciences (NCATS), 2010)
# This is one part of the list. Shown are side measurements of this screen, not its main read-out; they come without a call. Most of these compounds were active or inconclusive in the main read-out, so they are no random draw. Potencies come from curve fits of mixed quality, noted in brackets.
# Experiment: qHTS Assay for Lipid Storage Modulators in Drosophila S3 Cells;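 as to cell number change: cells counted by Cell Tracker Red CMTPX staining in the red channel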
# Conditions: BODIPY lipid droplet fluorescence, 18-24 h; for cell number change: measured here: cell count max response, cells fed with added oleic acid
# How it was run: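 Laser-scanning cytometry quantifies lipid droplet accumulation (500–530 nm total intensity; droplet/cell object ratio) in oleic acid-fed (400 uM added) Drosophila S3 cells treated with a concentration series. 20 uM Triacsin C defined 100% inhibition.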
# [1] = measured here: lipid fluorescence (Fed channel) AC50, cells fed with added oleic acid
# [2] = measured here: cell number channel AC50, cells fed with added oleic acid
SMILES,cell number change,AC50 [1],AC50 [2]
Cc1nnc(NC(=O)c2ccc(-c3ccc([N+](=O)[O-])cc3)o2)s1,21.6%,"6.51 µM [rising, single point]",
CCOc1ccc(NC(=O)COc2ccc(C(=O)NC(C)c3ccc(S(N)(=O)=O)cc3)cc2OC)cc1 (stereo not drawn),15.1%,"5.17 µM [rising, single point]",
CCOC(=O)C(NC(=O)c1ccc(OC)cc1)(OCC1(CC)COC1)C(F)(F)F (stereo not drawn),0.0015%,,
CC(C)CNC(=O)c1nn(Cc2ccccc2)c(=O)c2ccccc12,32.9%,"0.00517 µM [falling, full curve, poor fit]","29.1 µM [rising, single point]"
Oc1ccc(N=Cc2sc3ccccc3c2Cl)cc1,-45.4%,"20.6 µM [falling, single point]","23.1 µM [falling, single point]"
CCCc1nnc(NC(=O)c2nc(S(=O)(=O)Cc3cccc(C)c3)ncc2Cl)s1,,"3.66 µM [falling, partial curve, poor fit]","6.51 µM [falling, single point]"
CCOc1ccc(NC(=O)CN2CCN(C(=O)c3ccco3)CC2)cc1S(=O)(=O)N1CCCC1,3.47%,"1.46 µM [falling, partial curve]",
NNC(=O)[C@@H]1C[C@@H]1c1ccccc1,8.8%,"1.84 µM [falling, partial curve, poor fit]",
COc1ccc(NC(=O)Nc2c[nH]c(=O)[nH]c2=O)cc1OC,-15.3%,,
CCN(CC(=O)Nc1ccc(OC)cc1)C(=O)c1ccc2c(c1)NC(=O)CS2,7.5%,,
Cn1c(=O)cc(C(=O)N/N=C/c2ccc(F)cc2)[nH]c1=O,1.81%,"2.59 µM [rising, partial curve]","1.3 µM [rising, partial curve, poor fit]"
CSCCC(NC(=O)c1ccc([N+](=O)[O-])cc1Cl)C(=O)OCC(=O)NCCCc1ccccc1 (stereo not drawn),13.8%,"29.1 µM [rising, single point]",
Cc1ccc(C)c(N(C(=O)c2snc(C(N)=O)c2N)C(C(=O)NCC2CCCO2)c2cccs2)c1 (stereo not drawn),0.82%,"29.1 µM [rising, partial curve]",
CS(=O)(=O)N(Cc1ccccc1)c1ccc(C(=O)Nc2ccccc2C(=O)O)cc1,0.73%,"0.0058 µM [falling, full curve, poor fit]","2.31 µM [rising, partial curve]"
COc1ccc(CN(C(=O)c2nsc(Cl)c2Cl)C(C(=O)NC2CCCC2)c2ccc(OC)cc2)cc1 (stereo not drawn),-32.1%,"2.06 µM [falling, partial curve, poor fit]","16.4 µM [falling, partial curve]"
Cn1nnc(NC(=O)COc2ccc(C3CCCCC3)cc2)n1,-32.9%,"0.13 µM [falling, full curve, poor fit]","0.058 µM [falling, full curve, poor fit]"
COc1cc(C(=O)OCCNC(=O)c2ccccc2)cc(OC)c1OC,-27.8%,"18.4 µM [falling, partial curve]",
CN(C)C(=O)CN(c1ccc(F)c(Cl)c1)S(C)(=O)=O,67.6%,,
O=C(CCCCCNC(=O)c1ccccc1)N=Nc1c(O)[nH]c2c(Br)cc(Br)cc12,,"13 µM [rising, partial curve, poor fit]",
Cc1ccccc1CN(c1ccc(C(=O)NCc2ccccn2)cc1)S(C)(=O)=O,-0.637%,"6.51 µM [rising, single point]","6.51 µM [rising, single point]"

SMILES,cell number change,AC50 [1],AC50 [2]
O=C(CSc1nc(O)cc(=O)n1-c1ccc(Cl)c(Cl)c1)Nc1ccc(Cl)cc1Cl,-2.64%,,
O=C(Nc1ccc(Cl)cc1)OCCn1nnnc1C(c1ccccc1)N1CCOCC1 (stereo not drawn),119%,,"29.1 µM [rising, single point]"
O=C(O)COCC(=O)Nc1ccc2c(c1)CCC2,11.2%,"0.651 µM [falling, full curve]",
CC(=O)Nc1cccc(NC(=O)COC(=O)CO/N=C(\C)c2ccc3c(c2)OCO3)c1,37.3%,,
CC(=O)c1ccc(NC(=O)c2ccc(COc3ccccc3[N+](=O)[O-])o2)cc1,-47.3%,"29.1 µM [falling, single point]","29.1 µM [falling, single point]"
CCCCN1C(=O)C(CC(=O)NCC)SC1=Nc1ccccc1 (stereo not drawn),6.52%,"2.06 µM [rising, partial curve, poor fit]",
CN(C)CCN1C(=O)C(=O)/C(=C(/O)c2ccc(F)cc2)C1c1ccccc1 (stereo not drawn),-37.3%,"2.06 µM [falling, partial curve]","0.00461 µM [falling, full curve, poor fit]"
CCC(=O)N/C(=N/c1nc(C)cc(C)n1)Nc1cccc(OC)c1,47.9%,"3.66 µM [rising, partial curve]","1.84 µM [rising, full curve]"
COc1ccccc1NS(=O)(=O)c1ccc(C(=O)N2CCCC(C(F)(F)F)C2)cc1 (stereo not drawn),-16.8%,"3.26 µM [rising, single point]","6.51 µM [rising, single point]"
COc1ccc(CN(CC(O)COc2cccc3[nH]cc(C)c23)C(C)(C)C)cc1 (stereo not drawn),-27.8%,,"0.116 µM [falling, full curve, poor fit]"
CCNC(=O)NC(=O)C(C)OC(=O)CCS(=O)(=O)c1ccc(C)cc1 (stereo not drawn),-24.6%,"3.66 µM [falling, full curve]","3.26 µM [falling, full curve, poor fit]"
COCCNC(=O)c1onc(CSc2ccccc2)c1C(=O)NCCOC,-19%,,
COC(=O)c1ccc(N=C2S/C(=C\c3cc(C)n(-c4cccnc4)c3C)C(=O)N2C)cc1,-17.1%,"29.1 µM [falling, single point]",
O=C(CCC1CCCCC1)NCc1ccncc1,,"6.51 µM [falling, single point]",
CCN(CC(=O)NCc1ccc(F)cc1)C(=O)c1cc2ccccc2o1,5.24%,"29.1 µM [rising, partial curve, poor fit]",
COC(=O)CCC(=O)c1ccc(OC)c(Cl)c1,20.5%,"0.731 µM [falling, partial curve, poor fit]","0.651 µM [falling, full curve, poor fit]"
COCC(=O)Nc1c(C(=O)Nc2ccc3c(c2)OCCO3)oc2ccccc12,-12.8%,,"0.517 µM [rising, single point]"
Cc1nc(NCCc2ccccc2)sc1C(=O)N(C)C,-7.94%,"29.1 µM [rising, single point]",
O=C(CSc1ncnc2c1cnn2-c1ccc(F)cc1)NCc1ccc2c(c1)OCO2,-9.16%,"1.46 µM [falling, partial curve]",
CN(Cc1ccc(F)cc1)Cc1nc(CCc2ccccc2)no1,1.46%,,

# Molecules above containing a CF3 group, in the order listed:
SMILES,cell number change,AC50 [1],AC50 [2]
CCOC(=O)C(NC(=O)c1ccc(OC)cc1)(OCC1(CC)COC1)C(F)(F)F (stereo not drawn),0.0015%,,
COc1ccccc1NS(=O)(=O)c1ccc(C(=O)N2CCCC(C(F)(F)F)C2)cc1 (stereo not drawn),-16.8%,"3.26 µM [rising, single point]","6.51 µM [rising, single point]"

# Next entries follow.

SMILES,cell number change,AC50 [1],AC50 [2]
COc1ccc(CC(=O)n2[nH]c(=O)c3ccccc3c2=O)cc1OC,-38.7%,"6.51 µM [falling, single point]","4.61 µM [falling, full curve]"
Cc1cc(C(=O)O)c2ccccc2n1,-0.299%,"6.51 µM [falling, single point]",
O=c1cc(O)nc(-c2ccc(Cl)cc2)s1,-40.6%,,"6.51 µM [falling, single point]"
CC(OC(=O)c1cc(=O)[nH]c2ccccc12)c1ccccc1 (stereo not drawn),-33.2%,,
CCN(CC)C(=O)C1CCN(S(=O)(=O)c2c(C)noc2/C=C/c2cccc(C)c2)CC1,11%,"0.731 µM [falling, single point]",
CCOC(=O)c1sc2nc(NC(=O)COc3ccccc3)sc2c1C,11.9%,,
COc1cccc(O)c1CN1CCC(C(=O)Nc2ccc(-c3cccc(C)c3)cc2)CC1,-68.8%,"29.1 µM [falling, single point]","8.2 µM [falling, partial curve]"
O=C(NCc1ccco1)C1CCN(S(=O)(=O)N2CCC3(CC2)OCCO3)CC1,,,"6.51 µM [falling, single point]"
CCOc1ccccc1NC(=O)C(OC(=O)c1ccc(O)cc1)c1ccccc1 (stereo not drawn),-24.6%,,
Cc1ccc(S(=O)(=O)NCC(=O)NC2CC2)cc1,-0.745%,,
CCCSC(=S)NC1CCS(=O)(=O)C1 (stereo not drawn),-19.2%,"0.206 µM [falling, full curve]",
CCOc1ccc(NC(=O)NNC(=O)C2CCC(C(C)(C)C)CC2)cc1 (stereo not drawn),2.75%,"0.651 µM [rising, full curve, poor fit]",
Cc1nnc(-c2ccccc2)nc1N(C)C,19.5%,"6.51 µM [falling, single point]",
Cc1nn(-c2ccccc2)c(Cl)c1C(=O)OCC(=O)NCCc1ccccc1,23.8%,"0.58 µM [rising, single point]",
CCOc1ccc(-c2ccc(SCC(=O)NC3CCCCC3)nn2)cc1,14.4%,"18.4 µM [rising, single point]",
CCOc1cc(C=O)cc(N=Nc2cccc([N+](=O)[O-])c2)c1O,-53%,,"23.1 µM [falling, single point]"
NC(=S)N/N=C/c1ccc2ccccc2c1,-29.5%,"6.51 µM [rising, single point]","5.8 µM [rising, single point]"
Oc1ccc(/C=N/NC(=S)N/N=C/c2ccc(O)cc2)cc1,52.9%,"29.1 µM [rising, single point]","16.4 µM [rising, single point]"

# An excerpt from above in order of molecular weight, falling:
SMILES,cell number change,AC50 [1],AC50 [2]
Oc1ccc(/C=N/NC(=S)N/N=C/c2ccc(O)cc2)cc1,52.9%,"29.1 µM [rising, single point]","16.4 µM [rising, single point]"
Cc1ccc(S(=O)(=O)NCC(=O)NC2CC2)cc1,-0.745%,,
Cc1cc(C(=O)O)c2ccccc2n1,-0.299%,"6.51 µM [falling, single point]",
